# Data reported in the supplement of paper PMC3334620.
# In all, about 33,000 sequences were measured (“E-score (-0.5 to 0.5)”: median about -0.0059, highest 2% from about 0.26 on). Some of the results follow.
# Target: T1, Cin5 (UniProt P40917)
# T1 sequence: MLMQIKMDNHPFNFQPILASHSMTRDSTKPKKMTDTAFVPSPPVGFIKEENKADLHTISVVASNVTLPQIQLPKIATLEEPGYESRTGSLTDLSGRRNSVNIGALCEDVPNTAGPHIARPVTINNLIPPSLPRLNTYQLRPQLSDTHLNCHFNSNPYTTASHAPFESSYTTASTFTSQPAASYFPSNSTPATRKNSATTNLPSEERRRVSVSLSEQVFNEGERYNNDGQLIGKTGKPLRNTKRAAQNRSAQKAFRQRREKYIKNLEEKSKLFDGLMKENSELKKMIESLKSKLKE
# Test: PBM E-score (8-mer binding enrichment) (E-score (-0.5 to 0.5)); higher = stronger / more preferred TF binding
# Conditions: protein concentration: 100 nM; construct: GST-full length
# Summary of the method: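 Using PURExpress in vitro transcription/translation, GST-tagged yeast transcription factors were made in full-length or DNA-binding-domain form. These were applied at about 100-200 nM to double-stranded universal all-10-mer Agilent arrays, and bound protein was detected with fluorescent anti-GST. Scans were normalised with masliner before the Universal PBM Analysis Suite assigned E-scores to ungapped eight-base words pooled with their reverse complements.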
row,Sequence,PBM E-score
1,CCTGCCTA,0.0485
2,AGTTGTTG,0.0199
3,CCCGTGTA,-0.0984
4,CCACGGAC,-0.237
5,CGAGCCAA,-0.00363
6,AGCGAGCA,0.0383
7,GTCGCCTA,-0.165
8,AGGTATTC,0.0294
9,ACGCGGGC,-0.0161
10,AATACGCA,0.152
11,AAATCAAC,0.133
12,CTCGCTCC,-0.0765
13,ACACCAGG,-0.221
14,CGATAATC,0.00964
15,ACGTCACC,0.129
16,GTGGGACA,-0.227
17,CAAGTCCC,-0.224
18,CACTGAAA,0.108
19,GACCGTAC,-0.276
20,ATGTCCAC,-0.00331
21,ATCCTATA,0.212
22,AGTCGCTA,-0.223

# 6 entries from above, set out differently.
row	Sequence	PBM E-score
3	CCCGTGTA	-0.0984
4	CCACGGAC	-0.237
5	CGAGCCAA	-0.00363
6	AGCGAGCA	0.0383
7	GTCGCCTA	-0.165
8	AGGTATTC	0.0294

# (further entries)

row,Sequence,PBM E-score
1,CATAGCCA,0.0386
2,CTAGGCCC,-0.227
3,AGCGGGTG,-0.164
4,GCAAGGGA,-0.233
5,ACCTTCAC,-0.107
6,ATATTATC,0.233
7,GATTACAC,0.233
8,ATTTCGGA,0.0876
9,GTGTGTCA,0.0629
10,GGGTTTGA,0.0823
11,GGACACGA,-0.254
12,CATCAGAA,0.139
13,GAAACCCC,-0.102
14,AGGGCTGC,-0.185
15,CAGTCCTA,-0.0967
16,GAGTTGAC,-0.058
17,GAGCCAAC,-0.053
18,CAGCGATG,-0.0506
19,ACCGGACT,-0.118
20,AACTAGGC,-0.102
21,CGCTTCCG,-0.0349
22,AGTTCCCG,-0.0236

row,Sequence,PBM E-score
1,AGCAAGAA,0.0824
2,GTCTGCAC,-0.187
3,AGCTTAAG,-0.0114
4,CTTTGCTC,-0.0382
5,AAAGAGCC,-0.204
6,ATGGCCTG,-0.0934
7,TAGCTGAA,0.0731
8,TACACTAA,0.0126
9,ACCGCCCC,0.00527
10,ACATCACG,-0.028
11,ATGAGATG,0.133
12,ACGGTCCA,-0.195
13,CCCCGCTC,-0.341
14,CGATCAAC,-0.204
15,GCTATATA,0.153
16,CCGCCAGC,-0.145
17,GGAAGAGA,0.0397
18,GAACGTCA,-0.161
19,CGGTATTA,0.0488
20,ACAGATGG,-0.0571
21,ATGGTCGA,-0.0503
22,AGGATGAC,-0.091

row,Sequence,PBM E-score
1,ACACGTGT,-0.0679
2,GGAGACTA,-0.043
3,ATTTCATG,0.0256
4,GATATGGC,-0.129
5,CTGTTGGA,-0.0447
6,AGACAGAA,0.0862
7,CCGGGAGG,-0.192
8,CGAAATGA,0.19
9,CAGAAGGC,-0.1
10,ATTGAGTA,0.262
11,AAGGACCA,-0.0692
12,ATATCGCA,-0.00978
13,AGCGGGAT,0.0177
14,GGGCGCAC,-0.28
15,CTCCCTAC,-0.12
16,CAGTATCC,0.0471
17,CGGATAAC,0.0563
18,GAACCGAC,0.00921
19,CGTGGTCA,-0.0679
20,ATAAAATG,0.212
